# Reference: the supplement of paper PMC8728848
# The other results are listed elsewhere or left out.
# B1: SfaEH (Escherichia coli), Q1RDG5 (protein)
# chain: LLCRNNQTGQVFNSGDTSFRVNVSPVVQYDKSISVLDLSQLVSCQNEDSTGQNYDYLKILKGSGFSPALDTKTYGRLDFTSRPTGYARQLPLQFDLQVTEAFYQYGVWKPFPAKLYLYPAPGVFGKVINNGDLLATLYVNKFSTKGQEAGERNFTWRFYATNDVYIQTGTCRVSSNNVKVDLPSYPGGPVTVPLTVRCDQTQSVSYTLSGPVTGSGNTVFANTAASGSGGVGIQLSDNVGPVPAGQPRSLGQVGSSPVSLGLKASYALTGQASPTPGAVQSVINVTFSYN
# What was measured:
# Assay in all cases: glycan array binding signal (z-score within array); higher = stronger binding
# Details in all cases: glycan notation: IUPAC condensed, linker removed
# Fuc(a1-2)Gal = target: Fuc(a1-2)Gal
# Method in brief: (§1)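 Arrays were curated from the Consortium for Functional Glycomics database, 3228 in total, and kept only where the protein sequence was available. Binding is expressed as a within-array Z-score. This score was averaged across arrays of the same protein sequence at different concentrations or buffers and across linkers, and negative values can be read as non-binding.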
# Fuc(a1-2)Gal(b1-3)GalNAc = target: Fuc(a1-2)Gal(b1-3)GalNAc
# Method in brief: as §1
# [1] = target: Fuc(a1-2)Gal(b1-3)GalNAc(a1-3)[Fuc(a1-2)]Gal(b1-4)Glc
# Method in brief: as §1
# [2] = target: Fuc(a1-2)Gal(b1-3)GalNAc(a1-3)[Fuc(a1-2)]Gal(b1-4)GlcNAc
# Method in brief: as §1
# [3] = target: Fuc(a1-2)Gal(b1-3)GalNAc(b1-3)Gal
# Method in brief: as §1
# [4] = target: Fuc(a1-2)Gal(b1-3)GalNAc(b1-3)Gal(a1-4)Gal(b1-4)Glc
# Method in brief: as §1
# [5] = target: Fuc(a1-2)Gal(b1-3)GalNAc(b1-4)[Neu5Ac(a2-3)]Gal(b1-4)Glc
# Method in brief: as §1
# Fuc(a1-2)Gal(b1-3)GlcNAc = target: Fuc(a1-2)Gal(b1-3)GlcNAc
# Method in brief: as §1
# [6] = target: Fuc(a1-2)Gal(b1-3)GlcNAc(b1-2)Man(a1-3)[Fuc(a1-2)Gal(b1-3)GlcNAc(b1-2)Man(a1-6)]Man(b1-4)GlcNAc(b1-4)GlcNAc
# Method in brief: as §1
# [7] = target: Fuc(a1-2)Gal(b1-3)GlcNAc(b1-2)Man(a1-3)[Fuc(a1-2)Gal(b1-3)GlcNAc(b1-2)Man(a1-6)]Man(b1-4)GlcNAc(b1-4)[Fuc(a1-6)]GlcNAc
# Method in brief: as §1
# [8] = target: Fuc(a1-2)Gal(b1-3)GlcNAc(b1-3)Gal(b1-4)Glc
# Method in brief: as §1
# [9] = target: Fuc(a1-2)Gal(b1-3)GlcNAc(b1-3)GalNAc
# Method in brief: as §1
# [10] = target: Fuc(a1-2)Gal(b1-3)GlcNAc(b1-3)[Fuc(a1-2)Gal(b1-3)GlcNAc(b1-6)]GalNAc
# Method in brief: as §1
# [11] = target: Fuc(a1-2)Gal(b1-3)GlcNAc(b1-3)[Gal(b1-4)GlcNAc(b1-6)]Gal(b1-4)Glc
# Method in brief: as §1
# [12] = target: Fuc(a1-2)Gal(b1-3)GlcNAc(b1-3)[Neu5Ac(a2-6)Gal(b1-4)GlcNAc(b1-6)]Gal(b1-4)Glc
# Method in brief: as §1
# [13] = target: Fuc(a1-2)Gal(b1-3)GlcNAc6S
# Method in brief: as §1
# [14] = target: Fuc(a1-2)Gal(b1-3)[Fuc(a1-4)]GlcNAc
# Method in brief: as §1
# [15] = target: Fuc(a1-2)Gal(b1-3)[Fuc(a1-4)]GlcNAc(b1-2)Man(a1-3)[Fuc(a1-2)Gal(b1-3)[Fuc(a1-4)]GlcNAc(b1-2)Man(a1-3)]Man(b1-4)GlcNAc(b1-4)GlcNAc
# Method in brief: as §1
# [16] = target: Fuc(a1-2)Gal(b1-3)[Fuc(a1-4)]GlcNAc(b1-2)Man(a1-3)[Fuc(a1-2)Gal(b1-3)[Fuc(a1-4)]GlcNAc(b1-2)Man(a1-6)]Man(b1-4)GlcNAc(b1-4)[Fuc(a1-6)]GlcNAc(b1-4)[Fuc(a1-6)]GlcNAc
# Method in brief: as §1
# [17] = target: Fuc(a1-2)Gal(b1-3)[Fuc(a1-4)]GlcNAc(b1-3)[Fuc(a1-3)[Gal(b1-4)]GlcNAc(b1-6)]Gal(b1-4)Glc
# Method in brief: as §1
# [18] = target: Fuc(a1-2)Gal(b1-3)[Fuc(a1-4)]GlcNAc(b1-3)[Gal(b1-4)GlcNAc(b1-6)]Gal(b1-4)Glc
# Method in brief: as §1
# [19] = target: Fuc(a1-2)Gal(b1-4)Fuc(a1-3)]GlcNAc(b1-2)Man(a1-3)[Fuc(a1-2)Gal(b1-4)[Fuc(a1-3)]GlcNAc(b1-2)Man(a1-6)]Man(b1-4)GlcNAc(b1-4)GlcNAc
# Method in brief: as §1
# Fuc(a1-2)Gal(b1-4)Glc = target: Fuc(a1-2)Gal(b1-4)Glc
# Method in brief: as §1
# Fuc(a1-2)Gal(b1-4)Glc6S = target: Fuc(a1-2)Gal(b1-4)Glc6S
# Method in brief: as §1
# Fuc(a1-2)Gal(b1-4)GlcNAc = target: Fuc(a1-2)Gal(b1-4)GlcNAc
# Method in brief: as §1
# [20] = target: Fuc(a1-2)Gal(b1-4)GlcNAc(b1-2)Man
# Method in brief: as §1
# [21] = target: Fuc(a1-2)Gal(b1-4)GlcNAc(b1-2)Man(a1-3)[Fuc(a1-2)Gal(b1-4)GlcNAc(b1-2)Man(a1-6)]Man(b1-4)GlcNAc(b1-4)GlcNAc
# Method in brief: as §1
# [22] = target: Fuc(a1-2)Gal(b1-4)GlcNAc(b1-2)Man(a1-3)[Fuc(a1-2)Gal(b1-4)GlcNAc(b1-2)Man(a1-6)]Man(b1-4)GlcNAc(b1-4)[Fuc(a1-6)]GlcNAc
# Method in brief: as §1
# [23] = target: Fuc(a1-2)Gal(b1-4)GlcNAc(b1-2)[Fuc(a1-2)Gal(b1-4)GlcNAc(b1-4)]Man(a1-3)[Fuc(a1-2)Gal(b1-4)GlcNAc(b1-2)Man(a1-6)]Man(b1-4)GlcNAc(b1-4)GlcNAc
# Method in brief: as §1
# [24] = target: Fuc(a1-2)Gal(b1-4)GlcNAc(b1-3)Gal(b1-4)GlcNAc
# Method in brief: as §1
binder,measurement,setting,value
B1,glycan array binding signal (z-score),Fuc(a1-2)Gal,-0.532
same,glycan array binding signal (z-score),Fuc(a1-2)Gal(b1-3)GalNAc,-0.226
same,glycan array binding signal (z-score),[1],-0.098
same,glycan array binding signal (z-score),[2],-0.117
same,glycan array binding signal (z-score),[3],0.525
same,glycan array binding signal (z-score),[4],-0.22
same,glycan array binding signal (z-score),[5],-0.413
same,glycan array binding signal (z-score),Fuc(a1-2)Gal(b1-3)GlcNAc,-0.678
same,glycan array binding signal (z-score),[6],0.788
same,glycan array binding signal (z-score),[7],0.691
same,glycan array binding signal (z-score),[8],0.357
same,glycan array binding signal (z-score),[9],-1.23
same,glycan array binding signal (z-score),[10],0.301
same,glycan array binding signal (z-score),[11],-0.405
same,glycan array binding signal (z-score),[12],-0.93
same,glycan array binding signal (z-score),[13],-0.911
same,glycan array binding signal (z-score),[14],-0.638
same,glycan array binding signal (z-score),[15],0.666
same,glycan array binding signal (z-score),[16],1.21
same,glycan array binding signal (z-score),[17],0.167
same,glycan array binding signal (z-score),[18],-0.768
same,glycan array binding signal (z-score),[19],0.084
same,glycan array binding signal (z-score),Fuc(a1-2)Gal(b1-4)Glc,0.14
same,glycan array binding signal (z-score),Fuc(a1-2)Gal(b1-4)Glc6S,0.852
same,glycan array binding signal (z-score),Fuc(a1-2)Gal(b1-4)GlcNAc,-0.144
same,glycan array binding signal (z-score),[20],-0.16
same,glycan array binding signal (z-score),[21],-0.305
same,glycan array binding signal (z-score),[22],-0.238
same,glycan array binding signal (z-score),[23],1.43
same,glycan array binding signal (z-score),[24],-0.452

# Nothing new here: entries from further up.
binder,measurement,setting,value
B1,glycan array binding signal (z-score),[14],-0.638
same,glycan array binding signal (z-score),[15],0.666
same,glycan array binding signal (z-score),[16],1.21
same,glycan array binding signal (z-score),[17],0.167
same,glycan array binding signal (z-score),[18],-0.768
same,glycan array binding signal (z-score),[19],0.084
